Data taken from PubChem BioAssay AID1159506, deposited by NCATS (2015).

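Luminescence from an EWS-FLI1 target-promoter (NR0B1) reporter, set against a CMV-promoter reporter, two days after silencing single genes in TC32 Ewing sarcoma cells. Each siRNA was applied at 20 nM. A z-score of the log NR0B1-over-CMV signal, less the median of siRNAs with the same seed; more negative means a stronger specific loss of the NR0B1 reporter.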

The strongest results of the screen are mostly left out here. Sequences are the guide (antisense) strand, without overhang.

- AGACCUUUCAUCUUGAUGG against FAM65B | seed-corrected z-score -0.6347
- UUUGAGUGCCUGAUAAGCC against RPL7P46 | seed-corrected z-score 0.5282
- UGCGUCAAAACCAACUACC against PLEKHH2 | seed-corrected z-score 1.604
- AAUCUUGUAGCAUAGAGGC against TBX22 | seed-corrected z-score -0.3216
- AACGGUUAUAUAUCUUCUC against CDCA7 | seed-corrected z-score -0.4401
- AACGAAAUCAUCACGGACA against DUXAP10 | seed-corrected z-score 0.8286
- UUGUUUAAAUGUUCCCAGC against SMIM21 | seed-corrected z-score -1.311
- UUCUCGAAAAAUGGAAGGC against XXYLT1 | seed-corrected z-score -0.1682
- AAGGCUCGAAUCACGGUUC against MRPL20 | seed-corrected z-score -1.29
- UUCAUGUACACCUCAGCGC against CPAMD8 | seed-corrected z-score 0.7922
- UCAGUCACUUUGAUGCUCC against LYPD4 | seed-corrected z-score 0.6247
- UAUUGUAUAGCACAAUCCC against CMTR2 | seed-corrected z-score 0.05505
- AAAACUGCUGCUAUCUCCC against MRPL10 | seed-corrected z-score -0.184
- UGAUCUUCAGGUAUUGCUC against ERP29 | seed-corrected z-score -0.3908
- AAGUGAGUCACUCAAGUAC against FAM83D | seed-corrected z-score 0.9947
- UGAAUUCGAAGCAUUGAGC against HDAC9 | seed-corrected z-score 0.3115
- UCUGGAGAUAACAUAUUGG against FAM122B | seed-corrected z-score -0.4481
- UUCUCAUAAAGGUCUCUCC against NLRP3 | seed-corrected z-score -0.6158
- UCUCGUUCCACGUUGAUGU against EIF4A1 | seed-corrected z-score 2.213
- AAACAUCUCCAGAUAGUCC against RNF112 | seed-corrected z-score -0.9461
- UAUCCGUACCUGAAUUUCC against ADAMTS4 | seed-corrected z-score -0.4303
- UGAGUUUCUCCUUCGCUUG against MED4 | seed-corrected z-score -1.198
- UCACGGGCGGUCACUAUCU against EMID1 | seed-corrected z-score -0.1863
- AUCCGAAAGAAGGUGAUGC against UNC13A | seed-corrected z-score -0.8575
- AGAGCGAUCGGACAGAUGC against FAM102A | seed-corrected z-score -0.2111
- UGAGCAUAUGUAUCGACCC against DOCK9 | seed-corrected z-score -0.1806
- AUCUGGUUACUGAACAGGC against ARMC9 | seed-corrected z-score -1.638
- UAUUGAAAUACAAAGAGUC against C1orf35 | seed-corrected z-score 0.2095
- AAAGCAAAACACUUGGUGC against AIDA | seed-corrected z-score 0.7292

The last 3 entries again:

strand	target gene	seed-corrected z-score
AUCUGGUUACUGAACAGGC	ARMC9	-1.638
UAUUGAAAUACAAAGAGUC	C1orf35	0.2095
AAAGCAAAACACUUGGUGC	AIDA	0.7292